Data taken from PubChem BioAssay AID662 (National Center for Advancing Translational Sciences (NCATS), 2007).
The other results are listed elsewhere or left out. Further columns of the screen follow, without active or inactive calls. Most of these compounds were active or inconclusive in the main read-out, so they are no random draw. Words in brackets tell the shape of the fitted curve; partial curves, single points and poor fits give uncertain potencies.

Test: Cell signaling CRE-BLA (Fsk stim)
Details: CHO CRE-bla reporter (cAMP response element driving beta-lactamase), forskolin EC10, beta-lactamase ratio; measured here: 460 nm blue channel
Method in brief: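 Modulation of forskolin signalling: compounds in titration series added with EC10 NKH 477 to CHO cells carrying a CRE-driven beta-lactamase reporter, 3 h, 37C. CCF4 FRET ratio (460/530 nm, ex 405 nm) gives %activity and AC50.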

SMILES | AC50
Cc1cccc2cc3c(N)c(C#N)sc3nc12 | 12.6 µM [rising, partial curve]
Cc1cc(C)c2nc(N3CCCN(C(=O)c4ccco4)CC3)c(C#N)cc2c1 | 10 µM [rising, partial curve]
COc1cccc(-c2cc(NCCc3c[nH]c4ccc(OC)cc34)ncn2)c1 | 5.01 µM [rising, partial curve]
COc1ccc(CC(=O)Nc2nccs2)cc1OC | 12.6 µM [rising, single point]
c1ccc(-n2nnc3ccccc32)nc1 | 0.01 µM [falling, full curve, poor fit]
Cc1nn(C)c(C)c1CNC(=O)c1nn2c(c1Cl)NC(c1cccs1)CC2C(F)(F)F (stereo unspecified) | 2 µM [falling, partial curve, poor fit]
CC(=O)N1CCC2(CC1)C(C#N)=C(N)Oc1c2sc2nc(C)cc(C)c12 | 2.51 µM [rising, full curve, poor fit]
CCCCCCOC(=O)C(C#N)c1nc2ccccc2nc1N1CCN(CC)CC1 (stereo unspecified) | 25.1 µM [rising, single point]
O=S(=O)(NCCNC/C=C\c1ccc(Br)cc1)c1cccc2cnccc12 | 15.8 µM [falling, partial curve]
Cc1nc2cnc(N3CCN(C)CC3)nc2n(CCc2ccccc2)c1=O | 12.6 µM [rising, partial curve]
CCOC(=O)c1[nH]c2ccc(F)cc2c1NC(=O)C1=COCCO1 | 10 µM [rising, partial curve]
CCc1nc(SCC(=O)Nc2ccccc2C(=O)OC)n[nH]1 | 0.00398 µM [falling, full curve]
O=C(c1ccc(CNS(=O)(=O)c2ccccc2)cc1)N1CCN(c2ccccn2)CC1 | 0.01 µM [falling, full curve, poor fit]
CC(C)Cn1c(N)c(C(=O)NCCN2CCOCC2)c2nc3ccccc3nc21 | 10 µM [rising, partial curve]
CC(=O)c1ccc2c3c(ccc(O)c13)CC2 | 0.1 µM [rising, full curve]
N#Cc1c(N)n(C2CCCCC2)c2nc3ccccc3nc12 | 15.8 µM [falling, partial curve]
CC1(C)CC[C@]2(C(=O)O)CC[C@]3(C)C(=CC[C@@H]4[C@@]5(C)CC[C@H](O)C(C)(C)[C@@H]5CC[C@@]43C)[C@@H]2C1 | 0.0158 µM [rising, full curve, poor fit]
CCOc1cc2[nH]c(=O)n(CCC(=O)NCCc3ccccc3)c(=O)c2cc1OCC | 5.01 µM [falling, single point]
CCOC(=O)c1ccc(NC(=O)c2c(O)c3ccccc3n(C)c2=O)cc1 | 20 µM [falling, single point]
COC(=O)c1c(NC(=O)CSc2nnnn2C)sc(C)c1C | 10 µM [rising, partial curve]
Cc1ccc(S(=O)(=O)N(C)c2ccc(OCC(=O)OCc3c(C)noc3C)cc2)cc1 | 5.01 µM [falling, single point]
COc1ccc(-n2c3c(cc(C(=O)NC4CCSC4=O)c2=O)C(=O)CC(C)(C)C3)cc1 (stereo unspecified) | 0.00316 µM [falling, full curve, poor fit]

By substructure: the entries above containing an aryl thioether with sulfur outside any ring.
SMILES | AC50
CCc1nc(SCC(=O)Nc2ccccc2C(=O)OC)n[nH]1 | 0.00398 µM [falling, full curve]
COC(=O)c1c(NC(=O)CSc2nnnn2C)sc(C)c1C | 10 µM [rising, partial curve]

More compounds follow.

SMILES | AC50
N#CCCn1c(=O)c(CCc2ccccc2)nc2cnc(Oc3ccccc3)nc21 | 0.126 µM [falling, single point]
CCCCNS(=O)(=O)c1ccc2nc(SCC(=O)c3ccc(C#N)cc3)[nH]c2c1 | 3.98 µM [falling, single point]
COc1cc(-c2nn3c(Cc4ccccc4)nnc3s2)cc(OC)c1OC | 0.501 µM [rising, full curve]
Cn1c(C(=O)N2CCN(c3ncccn3)CC2)cc2c(=O)n(C)c3ccccc3c21 | 3.98 µM [rising, single point]
CCc1nc(NCc2ccco2)c2oc3ccccc3c2n1 | 3.16 µM [rising, full curve]
Cn1c(=O)c2cc(S(=O)(=O)NCCC(=O)N3CC=C(c4ccccc4)CC3)ccc2n(C)c1=O | 25.1 µM [rising, single point]
OCCn1c(CSc2nnc(-c3ccco3)n2-c2ccccc2)nc2ccc(Cl)cc21 | 0.398 µM [rising, full curve]
N=P(N1CCOCC1)(N1CCOCC1)C12CC3CC(CC(C3)C1)C2 | 5.01 µM [falling, single point]
Cc1ccc(-c2cc(C(F)(F)F)n3ncc(C(=O)NCc4ccco4)c3n2)cc1 | 0.398 µM [rising, partial curve]
CCCCN(C(=O)NC(=O)C1=C(N2CCOCC2)/C(=C/c2ccccc2)CC1)S(C)(=O)=O | 12.6 µM [rising, single point]
Cc1ccc(-n2c(N)c(C(=O)N3CCN(C)CC3)sc2=S)cc1 | 10 µM [rising, single point]
Cn1c2ccccc2c2ncn(CCN3CCOCC3)c(=O)c21 | 25.1 µM [rising, single point]
COc1ccc(CCNC(=O)C2CC(=O)N(c3ccccc3)C2)cc1OC (stereo unspecified) | 0.631 µM [falling, partial curve]
COc1cc2c(cc1OC)CN(C(=O)c1ccc(OC)c(S(=O)(=O)N3CCOCC3)c1)CC2 | 25.1 µM [rising, single point]
CCOC(=O)C1CCN(C(=O)Cc2c(F)cccc2Cl)CC1 | 0.00794 µM [falling, full curve]
O=C(Nc1nc(-c2cccs2)cs1)c1cccc(S(=O)(=O)N2CCCCCC2)c1 | 25.1 µM [falling, single point]
Cc1ccc2nc3ccc(N4CCCC4)nn3c(=O)c2c1 | 12.6 µM [rising, partial curve]
COc1ccc(N2CSC3=C(C#N)C(c4ccc(OC)c(OC)c4)CC(=O)N3C2)c(OC)c1 (stereo unspecified) | 12.6 µM [rising, single point]
CC1(C)Cc2c(C#N)c(NC3CCCCC3)nc(-c3ccco3)c2CO1 | 3.16 µM [rising, partial curve]
CCC(C)Sc1nc2c(c(=O)[nH]c(=O)n2C)n1Cc1ccc(Cl)cc1 (stereo unspecified) | 5.01 µM [rising, partial curve]
Cc1ccc(-c2csc(N3CCC(NS(=O)(=O)c4ccc5c(c4)OCCO5)CC3)n2)cc1 | 7.94 µM [falling, partial curve]
O=C(CCSCc1ccccc1F)N1CCN(c2ccccn2)CC1 | 25.1 µM [falling, single point]

SMILES | AC50
Cc1cccc2sc(NC(=O)CNS(=O)(=O)c3ccc(Br)s3)nc12 | 0.251 µM [falling, full curve]
COc1cc(C2c3c(oc4c(C)cc(C)cc4c3=O)C(=O)N2Cc2cccnc2)ccc1O (stereo unspecified) | 6.31 µM [rising, partial curve]
COc1cccc(CN2CCN(CC(=O)Nc3ccccc3Cl)CC2)c1 | 25.1 µM [falling, partial curve]
C=CCn1c(CCNC(=O)c2cccs2)nnc1SCC(=O)Nc1cccc(C(C)=O)c1 | 25.1 µM [rising, single point]
O=C(Nc1ccncc1)c1c(F)cccc1F | 5.01 µM [falling, partial curve]
COCCOc1ccc(C(F)(F)F)cc1NC(=O)COC(=O)c1c(C)noc1C | 10 µM [rising, single point]
CCOc1ccc2[nH]c(C)c(CN3CCCCC3)c(=O)c2c1 | 7.94 µM [rising, partial curve, poor fit]
COc1ccc(-c2nnc3sc(C(C)N4C(=O)c5ccccc5C4=O)nn23)cc1 (stereo unspecified) | 10 µM [rising, partial curve]
Cc1cccc(CNc2cc(-c3cccnc3)ncn2)c1 | 7.94 µM [rising, partial curve]
COc1ccccc1-c1cc(C(=O)Nc2cccnc2)no1 | 25.1 µM [rising, single point]
COc1ccc(-c2cc(C(=O)NCCN3CCOCC3)c3ccccc3n2)cc1 | 12.6 µM [rising, single point]
COc1ccc(Oc2ncc3nc(C)c(=O)n(Cc4cccc(OC)c4)c3n2)cc1 | 7.94 µM [rising, partial curve]
Cn1c(=O)c2c(SCc3cccnc3)nc(CC(C)(C)C)nc2n(C)c1=O | 3.98 µM [rising, single point]
O=C(CSc1nnc(-c2ccc(Cl)cc2)n1Cc1ccco1)Nc1ccc2c(c1)OCCO2 | 0.501 µM [falling, full curve, poor fit]
Cc1ccc(-c2csc(/C(C#N)=C(\O)CN3CCN(C(=O)c4ccco4)CC3)n2)cc1 | 3.16 µM [rising, partial curve]
Cc1cccc(-c2cc3nc4c(c(N5CCOCC5)n3n2)CCCC4)c1 | 2 µM [rising, full curve, poor fit]
CC(C)(C)NC(=O)Cn1nnc(-c2ccc(Cl)cc2)n1 | 5.01 µM [falling, single point]
O=c1oc2c(CN3CCOCC3)c(O)ccc2c2c1CCCC2 | 12.6 µM [rising, partial curve]
CC(=O)N1C=CN(C(C)=O)C(c2cn(C)c3ccccc23)C1c1cn(C)c2ccccc12 (stereo unspecified) | 1 µM [falling, partial curve]
CC1(C)OC(=O)C2(Cc3ccccc3N3CCCCC32)C(=O)O1 (stereo unspecified) | 0.1 µM [falling, full curve]
CCNc1nc(NCc2ccccc2)nc(Oc2ccc(=O)[nH]n2)n1 | 0.631 µM [rising, full curve, poor fit]
O=C(CN(C(=O)CCC(=O)Nc1nccs1)c1ccc(F)cc1)NCc1ccco1 | 0.126 µM [falling, full curve, poor fit]
